In PubChem BioAssay AID504467 (National Center for Advancing Translational Sciences (NCATS), 2011):
Hit rate of the full screen: of about 330,000 compounds, about 7,700 (2.3%) were called active. The shares of active, inactive and inconclusive entries below differ from those in the screen. Calls follow the shape of the dose curve; as a rule, active = well fitted inhibition curve with a large enough effect; inconclusive = small, poorly fitted or top-dose-only effect, or effect the other way; inactive = flat fitted curve, though single readings scatter. Potencies beside an inconclusive call are fits to weak or partial responses and may not hold up.

Assay: qHTS screen for small molecules that inhibit ELG1-dependent DNA repair in human embryonic kidney (HEK293T) cells expressing luciferase-tagged ELG1; also: nearly all actives have a fitted effect of over 55% in size
Settings: HEK293T ELG1-luciferase reporter, luminescence, 16 h, DNA damage induced by 5-fluorouridine; activity change, negative = inhibition: at 46.1 µM (top of the series)
In short: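 Cells (2,000 per well) received 5-fluorouridine plus test compound or DMSO and were incubated 16 hr at 37 °C, 5% CO2. Luciferase activity was read by luminescence 30 min after ONE-Glo addition; signal suppression marked inhibition of damage-induced ELG1 function.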
% is scaled to controls: 0 for no effect and ±100 for the full control effect; potency is read from the fitted curve at half-maximal effect.

SMILES	activity change, negative = inhibition	Potency
Cc1ccc(N(C)C(=O)CC(C)S(=O)(=O)c2ccc3c(c2)NC(=O)CO3)cc1 (configuration not stated)	inactive: -3.11%	–
CC(C)N(C(=O)[C@H]1CC(CC(=O)NCCC2=CCCCC2)C(=O)N2CCc3c([nH]c4ccccc34)[C@]12C)C(C)C (some centres not stated)	–	inconclusive: 20.6 µM [inhibitor, single point]
Cn1c(-c2cccs2)[n+](C)c2ccccc21	–	inconclusive: 18.3 µM [inhibitor, partial curve]
Cn1c(SCC(=O)Nc2ccc3c(c2)n(C)c(=O)n3C)nnc1-c1ccncc1	–	inconclusive: 20.6 µM [activator, partial curve]
Cc1[nH]c2ccccc2c1C(=O)COC(=O)c1c(-c2ccccc2)noc1C	–	inconclusive: 20.6 µM [inhibitor, single point]
CC(=O)Nc1ccc(C(=O)N(C2=NC(C)CS2)c2ccc(Cl)cc2)cc1 (configuration not stated)	–	inconclusive: 20.6 µM [activator, single point]
COc1ccccc1N(C)S(=O)(=O)c1ccc(C(=O)NNC(=O)c2ccccc2O)cc1	inactive: -25.9%	–
COc1cc(C2C(C#N)=C(N)Oc3n[nH]c(-c4cccs4)c32)cc(OC)c1O (configuration not stated)	–	inconclusive: 16.4 µM [activator, single point]
O=C(NC1CCN(Cc2ccccc2)CC1)C1CCCN(c2nnc(-n3cccc3)s2)C1 (configuration not stated)	inactive: -15.6%	–
Nc1cn(C2OC(CO)C(O)C2O)c(=O)[nH]c1=O (configuration not stated)	inactive: 0.0116%	–
O=C(COC(=O)C12CC3CC(CC(C3)C1)C2)NCCCc1ccccc1	inactive: 1.55%	–
O=[n+]1cc(-c2cc3ccccc3o2)n([O-])c2c1CCCC2	–	inconclusive: 18.4 µM [activator, partial curve]
Cc1ccc(-n2nc3ccc(N)cc3n2)c(C)c1	–	inconclusive: 9.2 µM [activator, partial curve]
FC(F)(F)c1nnc(N2CCN(c3ccc(Cl)cc3)CC2)s1	inactive: 0%	–
O=C(CSc1n[nH]c(-c2cccs2)n1)N1CCCCC1	–	inconclusive: 16.4 µM [activator, single point]
O=C(c1cc(-c2cccs2)nn1-c1ccccc1)N1CCN(S(=O)(=O)c2ccccc2)CC1	inactive: -9.36%	–
CCCCC(=O)N1CCCC(c2nc(-c3cccc(OC)c3)no2)C1 (configuration not stated)	–	inconclusive: 23.1 µM [activator, partial curve]
Cc1ccc(-c2nnc(SCC(=O)NCCN3C(=O)CSC3=O)n2C)cc1	–	inconclusive: 16.4 µM [activator, single point]
CCCn1c(N)c(N(CCOC)C(=O)c2ccc(N(C)S(=O)(=O)c3ccc(C)cc3)cc2)c(=O)[nH]c1=O	–	inconclusive: 5.8 µM [activator, single point]
COC(=O)CNC(=O)c1cccc(-c2ccc(OC)cc2)c1	–	inconclusive: 23.1 µM [activator, single point]
CCCC1=NN(c2ccc([N+](=O)[O-])cc2)C(=O)/C1=C/N(C)C	–	inconclusive: 20.6 µM [activator, partial curve]
CCc1nc(NCC2CCCO2)c2oc3ccccc3c2n1 (configuration not stated)	–	inconclusive: 20 µM [inhibitor, single point]
Cc1cc(/C=C2/C(=O)N(C)C(=S)N2C)c(C)n1C1CC1	–	inconclusive: 13 µM [activator, partial curve]

2 records picked at random from the list so far, as already listed:
SMILES	activity change, negative = inhibition	Potency
Cc1cc(/C=C2/C(=O)N(C)C(=S)N2C)c(C)n1C1CC1	–	inconclusive: 13 µM [activator, partial curve]
Cc1ccc(-n2nc3ccc(N)cc3n2)c(C)c1	–	inconclusive: 9.2 µM [activator, partial curve]

Next results.

SMILES	activity change, negative = inhibition	Potency
COc1ccc(CNc2ccc(Cl)cc2)cc1Cn1ccnc1	inactive: -19.8%	–
O=C(CSc1ccccc1C(=O)NCc1ccccc1)NC12CC3CC(CC(C3)C1)C2	–	inconclusive: 32.6 µM [inhibitor, partial curve, poor fit]
COc1ccccc1N1CCN(C(=O)CSc2nc(-c3ccccc3)cc(=O)[nH]2)CC1	–	inconclusive: 16.4 µM [inhibitor, single point]
O=c1[nH]cnc2c([N+](=O)[O-])cccc12	inactive: 4.89%	–
COc1cc(-c2nnc(COc3ccc4cc(Br)ccc4c3)o2)cc(OC)c1OC	inactive: 4.84%	–
CN(C)S(=O)(=O)c1cccc(NC(=O)COC(=O)COc2ccc(Br)cc2)c1	–	inconclusive: 8.2 µM [activator, partial curve, poor fit]
Cc1cccc(NC(=O)c2cc3c(=O)n4ccccc4nc3s2)c1	–	inconclusive: 29.1 µM [activator, single point]
Cc1cccc(NC(=O)CC2Nc3cccc4cccc(c34)NC2=O)c1 (configuration not stated)	inactive: -5.06%	–
Cc1cc(-c2ccc(C(C)C)c(S(=O)(=O)N3CCOc4ccccc43)c2)on1	–	inconclusive: 29.1 µM [inhibitor, single point]
COc1ccc(C(=O)CC(=O)c2ccc(C)cc2)c(O)c1	–	inconclusive: 18.3 µM [activator, partial curve]
Cc1cccc(N2CCN(c3ccc(N4C(=O)CCCC4=O)cc3[N+](=O)[O-])CC2C)c1 (configuration not stated)	–	inconclusive: 9.2 µM [inhibitor, partial curve, poor fit]
CN(C)S(=O)(=O)c1ccc(N2CCCC2)c(C(=O)Nc2nc(-c3ccc(F)c(F)c3)cs2)c1	–	inconclusive: 5.8 µM [inhibitor, partial curve, poor fit]
CCn1c(C)nc2cc(C(=O)N=Nc3c(O)[nH]c4ccccc34)ccc21	–	inconclusive: 5.17 µM [activator, partial curve, poor fit]
CCOc1nc(CC)nc(NC(=O)NS(=O)(=O)c2ccccc2Cl)n1	–	inconclusive: 29.1 µM [inhibitor, single point]
Cc1nnc2ccc(-c3cccc(NS(=O)(=O)c4ccccc4[N+](=O)[O-])c3)nn12	–	inconclusive: 16.4 µM [activator, partial curve]
COc1ccc(/C=C/C(=O)N2CCCc3ccccc32)cc1	–	inconclusive: 9.2 µM [activator, partial curve, poor fit]
COc1cc(NC(=O)Nc2cccc(Cl)c2)c(OC)cc1NC(=O)CN1CCCCC1	inactive: -14.2%	–
COc1ccc(N2CCN(C(=O)CSc3nnc(-c4cc5ccccc5cc4O)n3C)CC2)cc1	–	active: 11.2 µM
CN(C)S(=O)(=O)c1cccc(NC(=O)c2cncc(Br)c2)c1	inactive: -18.8%	–
CCN(CC)S(=O)(=O)c1cccc(-c2nnc(SCCOc3ccccc3)o2)c1	–	inconclusive: 23.1 µM [inhibitor, single point]
O=C(CSc1nccn1-c1ccccc1)Nc1ccc2c(c1)OCO2	–	inconclusive: 18.4 µM [activator, single point]
O=C(Nc1ccccc1)c1cc2ccccc2c(=O)s1	–	inconclusive: 29.1 µM [inhibitor, single point]
Cc1cc(NC(=O)NC(=O)c2ccc(F)cc2F)n[nH]1	–	inconclusive: 2.31 µM [activator, partial curve]

Reprinted from the results shown for reference:
SMILES	activity change, negative = inhibition	Potency
Cc1cccc(N2CCN(c3ccc(N4C(=O)CCCC4=O)cc3[N+](=O)[O-])CC2C)c1 (configuration not stated)	–	inconclusive: 9.2 µM [inhibitor, partial curve, poor fit]
CN(C)S(=O)(=O)c1ccc(N2CCCC2)c(C(=O)Nc2nc(-c3ccc(F)c(F)c3)cs2)c1	–	inconclusive: 5.8 µM [inhibitor, partial curve, poor fit]

Next entries

SMILES	activity change, negative = inhibition	Potency
COc1ccccc1OCCN1C(=O)S/C(=C\c2ccco2)C1=O	–	inconclusive: 16.4 µM [activator, partial curve, poor fit]
COc1cccc(NC(=O)C2CC(=O)N/C(=N/NC(=O)c3ccc(C)cc3)S2)c1 (configuration not stated)	inactive: 7.93%	–
CCc1cc2c(=O)n3c(nc2s1)-c1[nH]c2ccc(OC)cc2c1CC3	–	inconclusive: 5.8 µM [activator, partial curve]
COCCn1c(-c2ccc(F)cc2)nc2cccnc21	inactive: -22.3%	–
CCOc1cc(/C=C/c2ccc3cccc([N+](=O)[O-])c3n2)ccc1O	inactive: -22.8%	–
CCOc1ccc(N(C(=O)c2snc(C(N)=O)c2N)C(C(=O)NCC2CCCO2)c2ccco2)cc1 (configuration not stated)	inactive: -2.51%	–
O=c1c2c(nc3cc(-c4cccc(Cl)c4)[nH]n13)CCCC2	–	inconclusive: 0.259 µM [activator, full curve]
CN(C)c1ccc(C(C(=O)NCC2CCCO2)N(Cc2ccccc2)C(=O)c2snc(C(N)=O)c2N)cc1 (configuration not stated)	–	active: 11.6 µM
O=C(/C=C/c1ccco1)N1CCN(c2ccccc2)CC1	–	inconclusive: 16.4 µM [activator, partial curve]
Cn1c(N2CCCC2)nc2c1c(=O)n(Cc1cccc(F)c1)c(=O)n2C	–	inconclusive: 6.51 µM [inhibitor, single point]
Cc1cc(C)cc(C(=O)OCC(=O)Nc2ncccn2)c1	inactive: 13.1%	–
CCn1cc(/C=C/C(=O)Nc2c(C)nn(Cc3ccccc3)c2C)cn1	–	inconclusive: 9.2 µM [inhibitor, partial curve, poor fit]
Cc1cc(C(=O)Nc2ccc3c(c2)OCCO3)c(C)o1	–	inconclusive: 7.31 µM [activator, partial curve]
CCCNC(=O)OC[C@H]1O[C@H](CCO/N=C/C[C@@H]2C=C[C@H](OC(C)=O)[C@@H](COC(C)=O)O2)C=C[C@@H]1Oc1ccc(OC)cc1	–	inconclusive: 25.9 µM [inhibitor, partial curve]
O=C(N/N=C/C(Br)=C\c1ccccc1)c1cccs1	–	inconclusive: 8.2 µM [activator, partial curve]
CCOCCCN(C(=O)c1snc(C(N)=O)c1N)C(C(=O)NC1CCCC1)c1ccc(F)cc1 (configuration not stated)	inactive: -0.342%	–
Cc1ccc(CSC(Nc2ccc(F)cc2)=C(C#N)C#N)cc1	–	inconclusive: 2.31 µM [inhibitor, partial curve, poor fit]
COc1ccccc1OCCCCn1c(C(C)O)nc2ccccc21 (configuration not stated)	–	inconclusive: 23.1 µM [inhibitor, partial curve]
O=C(CCS(=O)(=O)Cc1ccc(Cl)cc1)NCCCN1CCN(c2ccccc2F)CC1	–	inconclusive: 18.4 µM [inhibitor, partial curve]
Cc1ccc2sc(N(CCCN(C)C)C(=O)c3ccc(S(=O)(=O)N(C)C)cc3)nc2c1C	inactive: 7.55%	–
COc1cccc(Nc2nc3ccc(OC)cc3s2)c1	–	inconclusive: 10.3 µM [activator, partial curve]
